According to article PMC7862700:
The entries are a selection whose mix differs from that of the whole data set. For some of these results: At the low end of the ranking, values are background and their order means little. Some of the results follow. For some of these results: The exact form of the protein is not confirmed.

Chains of the proteins cited; added tags and fusions are not shown. Lines headed by an entry give the natural chain unless they say otherwise; changes in a name come on top.
UniProt P32519: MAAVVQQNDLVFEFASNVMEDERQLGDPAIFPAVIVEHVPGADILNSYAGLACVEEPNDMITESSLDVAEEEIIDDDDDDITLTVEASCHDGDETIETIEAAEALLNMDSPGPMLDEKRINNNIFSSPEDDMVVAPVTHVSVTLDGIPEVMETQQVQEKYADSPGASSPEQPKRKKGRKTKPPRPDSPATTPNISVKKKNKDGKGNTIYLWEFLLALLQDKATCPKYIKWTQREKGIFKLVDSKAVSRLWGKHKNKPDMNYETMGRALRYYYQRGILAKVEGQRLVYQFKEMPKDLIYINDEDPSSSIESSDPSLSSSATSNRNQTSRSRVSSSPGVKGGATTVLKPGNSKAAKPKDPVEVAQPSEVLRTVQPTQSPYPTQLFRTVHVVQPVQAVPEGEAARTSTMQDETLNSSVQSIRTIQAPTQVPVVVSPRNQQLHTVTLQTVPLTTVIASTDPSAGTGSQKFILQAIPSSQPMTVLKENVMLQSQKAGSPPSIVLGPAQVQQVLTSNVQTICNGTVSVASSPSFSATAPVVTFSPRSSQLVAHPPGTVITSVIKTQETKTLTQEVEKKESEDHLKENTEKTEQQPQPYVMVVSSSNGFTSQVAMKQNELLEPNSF

biological target: T1, ERG (UniProt P11308); test: DAPPL (digital affinity profiling via proximity ligation, sequencing); conditions: 10 mM Tris-HCl pH 7.5, 50 mM NaCl, 1 mM DTT, 4% glycerol, room temperature, 30 min; GST-TFs on glutathione beads, 16-mer random dsDNA library, 0.1% …; high values mean tight binding; double strand, one strand shown; scale: fold enrichment (6-mer frequency, TF over GST control)
T1 sequence: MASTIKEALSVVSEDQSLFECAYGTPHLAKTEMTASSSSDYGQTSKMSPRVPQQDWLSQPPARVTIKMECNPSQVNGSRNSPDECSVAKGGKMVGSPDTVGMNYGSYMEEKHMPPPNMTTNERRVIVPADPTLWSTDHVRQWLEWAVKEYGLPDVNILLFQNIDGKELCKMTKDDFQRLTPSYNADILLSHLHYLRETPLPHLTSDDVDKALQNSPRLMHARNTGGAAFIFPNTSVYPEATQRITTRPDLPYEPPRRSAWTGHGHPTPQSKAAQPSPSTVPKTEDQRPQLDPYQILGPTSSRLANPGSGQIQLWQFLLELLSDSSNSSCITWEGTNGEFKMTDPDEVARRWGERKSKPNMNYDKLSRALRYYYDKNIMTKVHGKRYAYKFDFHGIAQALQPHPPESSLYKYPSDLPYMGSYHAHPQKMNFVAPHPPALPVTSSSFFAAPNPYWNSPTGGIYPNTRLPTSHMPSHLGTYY

| Sequence | binding signal |
| --- | --- |
| CCCTGG | 0.999 |
| CGAATA | 1.07 |
| GAACCA | 0.944 |
| GTTTCC | 3.43 |
| TGCTGA | 1.01 |
| CCGATT | 1.34 |
| TACGTA | 1.2 |
| ATCAGC | 0.995 |
| ACTCTA | 1.39 |
| AAAGCG | 1.09 |
| TCTTCT | 1.23 |
| CTGGCC | 1.29 |
| ACTAGC | 1.21 |
| GCTCGT | 1.12 |
| ACTTCA | 1.4 |
| ATTCTA | 1.23 |
| TCGATC | 1.18 |
| ATCACT | 1.28 |
| TACTTA | 1.16 |
| CGATTT | 1.17 |

| Sequence | binding signal |
| --- | --- |
| AAACCC | 1.25 |
| TATTGG | 1.15 |
| GCTAAT | 1.13 |
| ATAAAT | 1.15 |
| TCGACA | 1.35 |
| GCTTCA | 1.34 |
| CGCTCT | 1.21 |
| ATCCGA | 1.31 |
| AATAAC | 1.27 |
| CCCACG | 1.09 |
| GATATC | 1.9 |
| TTGCCG | 1.04 |
| ATGTAC | 1.11 |
| ACCTCG | 1.15 |
| ATCGCC | 1.29 |
| GTCTAC | 1.05 |
| TGTGAC | 1.08 |
| CAATAA | 1.13 |
| TGCTGC | 0.996 |

biological target: ELF1 (UniProt P32519); test: as above; conditions: 10 mM Tris-HCl pH 7.5, 50 mM NaCl, 1 mM DTT, 4% glycerol, room temperature, 30 min; GST-TFs on glutathione beads, 16-mer random dsDNA library, 0.1% …; high values mean tight binding; double strand, one strand shown; scale: fold enrichment (6-mer frequency, TF over GST control)

| Sequence | binding signal |
| --- | --- |
| CGAATA | 1.28 |
| CTGGCC | 1.23 |
| ACTTCA | 1.42 |
| CGCTCT | 1.3 |
| GATATC | 1.46 |
| TGCTGC | 1.21 |

biological target: T2, ETV4 (UniProt P43268); test: as above; conditions: 10 mM Tris-HCl pH 7.5, 50 mM NaCl, 1 mM DTT, 4% glycerol, room temperature, 30 min; GST-TFs on glutathione beads, 16-mer random dsDNA library, 0.1% …; high values mean tight binding; double strand, one strand shown; scale: fold enrichment (6-mer frequency, TF over GST control)
T2 sequence: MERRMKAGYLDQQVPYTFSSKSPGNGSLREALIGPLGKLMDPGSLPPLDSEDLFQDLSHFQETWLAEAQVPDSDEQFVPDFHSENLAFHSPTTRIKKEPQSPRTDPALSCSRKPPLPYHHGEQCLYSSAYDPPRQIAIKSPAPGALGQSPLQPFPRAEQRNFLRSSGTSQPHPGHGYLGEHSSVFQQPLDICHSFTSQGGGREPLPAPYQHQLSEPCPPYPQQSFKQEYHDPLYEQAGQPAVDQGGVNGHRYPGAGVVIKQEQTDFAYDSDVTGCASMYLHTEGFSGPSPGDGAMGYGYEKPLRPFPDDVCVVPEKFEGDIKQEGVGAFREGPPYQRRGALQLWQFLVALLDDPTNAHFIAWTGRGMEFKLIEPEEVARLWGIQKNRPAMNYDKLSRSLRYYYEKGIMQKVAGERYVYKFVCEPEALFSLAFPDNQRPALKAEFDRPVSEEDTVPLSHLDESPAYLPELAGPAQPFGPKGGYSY

| Sequence | binding signal |
| --- | --- |
| CCCTGG | 1.24 |
| CGAATA | 1.1 |
| GAACCA | 0.985 |
| GTTTCC | 2.83 |
| TGCTGA | 1.1 |
| CCGATT | 1.41 |
| TACGTA | 1.29 |
| ATCAGC | 1.06 |
| ACTCTA | 1.4 |
| AAAGCG | 1.05 |
| TCTTCT | 1.27 |
| CTGGCC | 1.13 |
| ACTAGC | 1.16 |
| GCTCGT | 1.23 |
| ACTTCA | 1.36 |
| ATTCTA | 1.21 |
| TCGATC | 1.21 |
| ATCACT | 1.28 |
| TACTTA | 1.14 |
| CGATTT | 1.18 |

| Sequence | binding signal |
| --- | --- |
| AAACCC | 1.22 |
| TATTGG | 1.24 |
| GCTAAT | 1.1 |
| ATAAAT | 1.18 |
| TCGACA | 1.3 |
| GCTTCA | 1.26 |
| CGCTCT | 1.28 |
| ATCCGA | 1.24 |
| AATAAC | 1.28 |
| CCCACG | 1.21 |
| GATATC | 1.72 |
| TTGCCG | 1.19 |
| ATGTAC | 1.4 |
| ACCTCG | 1.26 |
| ATCGCC | 1.36 |
| GTCTAC | 1.15 |
| TGTGAC | 1.1 |
| CAATAA | 1.2 |
| TGCTGC | 1.29 |

biological target: T3, ERF (UniProt P50548); test: as above; conditions: 10 mM Tris-HCl pH 7.5, 50 mM NaCl, 1 mM DTT, 4% glycerol, room temperature, 30 min; GST-TFs on glutathione beads, 16-mer random dsDNA library, 0.1% …; high values mean tight binding; double strand, one strand shown; scale: fold enrichment (6-mer frequency, TF over GST control)
T3 sequence: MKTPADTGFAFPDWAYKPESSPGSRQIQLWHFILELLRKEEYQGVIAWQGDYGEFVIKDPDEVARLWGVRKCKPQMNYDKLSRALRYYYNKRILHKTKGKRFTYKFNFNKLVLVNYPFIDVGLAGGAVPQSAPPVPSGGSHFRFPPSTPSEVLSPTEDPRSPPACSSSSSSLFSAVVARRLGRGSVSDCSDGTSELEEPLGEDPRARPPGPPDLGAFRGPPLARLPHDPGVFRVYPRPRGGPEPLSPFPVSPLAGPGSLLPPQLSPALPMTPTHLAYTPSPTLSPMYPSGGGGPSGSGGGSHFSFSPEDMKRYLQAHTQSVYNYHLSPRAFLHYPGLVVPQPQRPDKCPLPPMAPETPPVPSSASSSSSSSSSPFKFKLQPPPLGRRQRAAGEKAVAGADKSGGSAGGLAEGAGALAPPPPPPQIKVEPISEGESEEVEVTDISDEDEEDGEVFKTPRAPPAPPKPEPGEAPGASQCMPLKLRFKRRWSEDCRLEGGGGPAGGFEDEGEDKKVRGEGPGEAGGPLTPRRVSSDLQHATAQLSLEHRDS

| Sequence | binding signal |
| --- | --- |
| CCCTGG | 1.24 |
| CGAATA | 1.19 |
| GAACCA | 0.989 |
| GTTTCC | 2.49 |
| TGCTGA | 1.03 |
| CCGATT | 1.28 |
| TACGTA | 1.3 |
| ATCAGC | 0.913 |
| ACTCTA | 1.56 |
| AAAGCG | 1.13 |
| TCTTCT | 1.24 |
| ACTAGC | 1.19 |
| GCTCGT | 1.2 |
| ACTTCA | 1.33 |
| ATTCTA | 1.32 |
| TCGATC | 1.12 |
| ATCACT | 1.16 |
| TACTTA | 1.29 |
| CGATTT | 1.09 |

| Sequence | binding signal |
| --- | --- |
| AAACCC | 1.28 |
| TATTGG | 1.2 |
| GCTAAT | 1.23 |
| ATAAAT | 1.19 |
| TCGACA | 1.35 |
| GCTTCA | 1.33 |
| CGCTCT | 1.3 |
| ATCCGA | 1.22 |
| AATAAC | 1.33 |
| CCCACG | 1.13 |
| GATATC | 1.56 |
| TTGCCG | 0.898 |
| ATGTAC | 1.19 |
| ACCTCG | 1.2 |
| ATCGCC | 1.27 |
| GTCTAC | 1.07 |
| TGTGAC | 0.983 |
| CAATAA | 1.15 |
